This note sets out measurements from PubChem BioAssay AID234 (DTP/NCI, 2004).

The assay has as its system C3AKF1 mice, hamster liver cystadenocarcinoma s.c., tumor weight T/C. The assay is described as follows: NCI In Vivo Anticancer Drug Screen. Data for tumor model Cystadenocarcinoma, Liver (No. 1) (Hamster) (subcutaneous) in C3AKF1 (CHKRF1) mice. Conditions: T/C endpoint: mean tumor weight, schedule: Q01DX010 (ip), higher T/C = larger tumour; for T/C: evaluated on day 15. The method, then: The antitumor activity of compounds was measured in mice bearing transplantable tumors. Survival or tumor size were measured and the results are expressed as the measurement made in the treated group (T) divided by the measurement made in the vehicle treated control group (C). The tumor model used in this assay is Cystadenocarcinoma, Liver (No. 1) (Hamster) (subcutaneous) in C3AKF1 (CHKRF1) mice

Setting [1] is: dose: 50.0 mg/kg/injection, vehicle: carboxymethylcellulose (CMC).
The mark [2] stands for this setting: dose: 100.0 mg/kg/injection, vehicle: carboxymethylcellulose (CMC).
Setting [3] is: dose: 200.0 mg/kg/injection, vehicle: carboxymethylcellulose (CMC).
[4] abbreviates: dose: 250.0 mg/kg/injection, vehicle: carboxymethylcellulose (CMC).

The list is a part of this screen's results and no random one: it gathers tests that were run many times, whatever their T/C, doses with no T/C, and many T/C values between a quarter and a half above the control. Other doses and runs of a compound stand elsewhere. T/C: endpoint of the treated group in % of that of the vehicle group. Schedules are NCI's codes, taken here to give the interval after Q, in days (D) or hours (H), and the number of doses after X. Some doses have a count of surviving animals in place of a T/C: the source holds a T/C of zero for them, seemingly a mark for toxic or unscored doses. Counts of survivors are from the toxicity check (mostly the fifth day) where no day follows; animals may have died later. Some entries hold several experiments; the results are listed from low to high.

Regarding `S=c1c2[nH]cnc2ncn1CCSC1=NC=NC2=NC=NC21` (configuration not stated), the T/C under setting [1] was 146 % of control and the T/C under setting [2] is 126 % of control. Besides, the survivor count under setting [3] is given as 3 of 6 and the survivor count (dose: 400.0 mg/kg/injection, vehicle: carboxymethylcellulose (CMC)) is recorded as 3 of 6.
In the case of `CCCCn1cnc2c(SC)nc(N)nc21`, the survivor count (dose: 230.0 mg/kg/injection, vehicle: carboxymethylcellulose (CMC)) is 4 of 7.
Regarding `CN(C)CCCN1c2ccccc2Sc2ccc(C(F)(F)F)cc21`, the survivor count is 2 of 6 (dose: 25.0 mg/kg/injection, vehicle: saline); 0 of 6 (dose: 50.0 mg/kg/injection, vehicle: saline); 0 of 6 (dose: 100.0 mg/kg/injection, vehicle: saline).
In the case of `Cc1cc(N)c2cc(NC(=O)CCCCCCCCC(=O)Nc3ccc4nc(C)cc(N)c4c3)ccc2n1`, the survivor count under setting [4] is recorded as 0 of 6.
Consider `C1CC[N-]CC1.C1CC[N-]CC1.C1CC[N-]CC1.C1CC[N-]CC1.[Cl][Co][Cl]`, for which, for the setting “dose: 120.0 mg/kg/injection, vehicle: saline”, the survivor count is recorded as 1 of 7.
Regarding `CCCNC(=NC)c1ccc(NC(=O)c2ccc(C(=O)Nc3ccc(C(=NC)NCCC)cc3)cc2)cc1`, the survivor count was 0 of 6 (dose: 25.0 mg/kg/injection, vehicle: carboxymethylcellulose (CMC)); 0 of 6 under setting [1]; 0 of 6 under setting [2].
Take `CCCCCCCCCCCC[n+]1ccc(C)cc1C`: the survivor count by setting is: (dose: 0.25 mg/kg/injection, vehicle: saline) 3 of 7; (dose: 0.5 mg/kg/injection, vehicle: saline) 2 of 7 and 2 of 6; (dose: 1.0 mg/kg/injection, vehicle: saline) 0 of 7; (dose: 2.0 mg/kg/injection, vehicle: saline) 0 of 7.
Take `O=c1[nH]c2cc(Cl)c(Cl)cc2o1`: the T/C (dose: 5.0 mg/kg/injection, vehicle: carboxymethylcellulose (CMC)) is 127 % of control. For the same molecule, the survivor count runs as follows: (dose: 19.0 mg/kg/injection, vehicle: carboxymethylcellulose (CMC)) 0 of 7; (dose: 150.0 mg/kg/injection, vehicle: carboxymethylcellulose (CMC)) 2 of 7.
Turning to `N#C[C@@H]1C2C=CC(CC2)[C@H]1C#N`, where the note is “dose: 4.0 mg/kg/injection, vehicle: carboxymethylcellulose (CMC)”, the survivor count is given as 1 of 6.
Turning to `CCN(CC)CC(C)Nc1ccc(C)c2sc3ccccc3c(=O)c12` (configuration not stated), the survivor count under setting [3] is on record as 1 of 6.
Take `S=c1nc[nH]c2c1ncn2C1CCCO1` (configuration not stated): the survivor count under setting [2] was 3 of 6.
Take `Cc1c2ccc3ccccc3c2c[n+]2ccccc12`: where the note is “dose: 6.0 mg/kg/injection, vehicle: carboxymethylcellulose (CMC)”, the T/C was 130 % of control. Moreover, the survivor count (dose: 24.0 mg/kg/injection, vehicle: carboxymethylcellulose (CMC)) is recorded as 1 of 6.
Regarding `CC(C)NCC(=O)c1ccc(O)c(O)c1`, the survivor count (dose: 400.0 mg/kg/injection, vehicle: saline) is recorded as 2 of 6.
For `CS(=O)(=O)OCCCCCCCCCOS(C)(=O)=O`, the survivor count was 4 of 7 (dose: 28.0 mg/kg/injection, vehicle: carboxymethylcellulose (CMC)) and 1 of 7 (dose: 55.0 mg/kg/injection, vehicle: carboxymethylcellulose (CMC)).
Consider `O=c1c[n+](-c2ccccc2)[nH]o1`, for which the survivor count is, setting by setting: (dose: 90.0 mg/kg/injection, vehicle: carboxymethylcellulose (CMC)) 1 of 6; (dose: 180.0 mg/kg/injection, vehicle: carboxymethylcellulose (CMC)) 1 of 6.
Consider `CC(Cl)CN(Cc1cc(O)c(CN(CC(C)Cl)CC(C)Cl)cc1O)CC(C)Cl` (configuration not stated), for which the survivor count (dose: 125.0 mg/kg/injection, vehicle: carboxymethylcellulose (CMC)) was 1 of 6; the survivor count under setting [4] was 0 of 6; the survivor count (dose: 500.0 mg/kg/injection, vehicle: carboxymethylcellulose (CMC)) is given as 0 of 6.
Take `O=P(c1ccccc1)(N1CC1)N1CC1`: the T/C (dose: 12.0 mg/kg/injection, vehicle: saline) is 126 % of control. Moreover, the survivor count was 2 of 6 (dose: 24.0 mg/kg/injection, vehicle: saline); 3 of 6 (dose: 48.0 mg/kg/injection, vehicle: saline); 0 of 6 (dose: 96.0 mg/kg/injection, vehicle: saline).
